Among all 52,000 sequences or so, about 210 (0.4%) were called active.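 The calls were made as follows: active = gene whose silencing raises cell survival under the drug, median off-target-corrected z-score across its silencing RNAs 2 or more; inactive = the rest.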 The list shows a part of the results.

The nature of this assay: Resistance to Poly (ADP-Ribose) Polymerase inhibitor: Gene Identification via Genome-wide siRNA Screen. The conditions noted are these: mouse BRCA2 R2336H ES cells, olaparib, CellTiter-Glo viability; active compounds read high. A digest of the protocol: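 Mouse BRCA2 R2336H ES cells were reverse-transfected with siRNA (20 nM final), treated at 48 h with 500 nM olaparib, and read by CellTiter-Glo after 72 h. Scores: MAD-based z per siRNA, median per gene, seed off-target correction.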
A general note: Cellular ATP, detected with luciferase, serves as a proxy for viable cell number.
GGUGAAGCUUCGAAUGACUTT against Slc25a10: the z-score was inactive: -0.596.
For GGUCUGCUCAAUGCUAUCATT against Olfr918, the z-score is inactive: -2.24.
The value for GGCUUCUAAGCACAAAGUATT against Ppp2r5a was inactive: -0.837; that for GCAUAGGCUAGGUUAUUAUTT against Lep was inactive: 1.4.
In the case of GGCCAGCAUCCAUGUUUUATT against Cacng1, the z-score was inactive: -0.98.
In the case of GGCAAUAAAUAUCCAGAAATT against Crygn it was inactive: -0.0657.
Consider “GGUAGAAGAAUUGUUUGUGTT against C130096D04Rik”, for which the z-score is inactive: 1.32.
Consider GCUCUGAAAUGUCUCUCCATT against LOC547343, for which the z-score is inactive: 0.0138.
The value for GGAGAGCUGGUGUUUUAGATT against Tnfrsf17 was inactive: -0.328.
Take CCCUCAAAGACCUGUACAUTT against Gm266: the z-score was inactive: -1.64.
The value for “CCGUUUUGAGAUCUGUUAATT against 4930465K10Rik” was inactive: -0.756; that for CCCUUGAUUAAGUGGAUUATT against Tgfa was inactive: -0.0563.
In the case of “GGAAAUCCUGGAAAACAAATT against 1110030L07Rik” it was inactive: -0.492; in that of GGUGUUUUAAGAUUGAAUGTT against Cyr61, inactive: 0.212; in that of GGAAAAGGAAGAAGAGGCATT against Zfpm1, inactive: -0.71.
As for GCAUAGAAAGCAUAGGUCCTT against Mrgprc11, the z-score is inactive: 0.399.
Take CCCGAUAUAAUCAAGAAACTT against Pld3: the z-score is inactive: 0.531.
The value for GGAUAAAAGAGAAGAGUGUTT against Glmn was inactive: 0.735; that for GCCUUUUAACUUAUUCUUGTT against Hey2 was inactive: 1.36.
As for GGGACAAAACCUUGACAGUTT against V1rh5, the z-score is inactive: -0.551.
GCUCGUUGACAAGAAGAGUTT against BC018465: the z-score is inactive: -0.52.
The value for GGUUCGGGUAAAUAGUUCCTT against BC030440 was inactive: -0.931; that for GGUCCUAAACCACUUCAGCTT against Gtf2f1 was inactive: 0.454.
In the case of GGAAUGUCGAAUUGAUUGUTT against Klrb1d it was inactive: 0.344.
In the case of GGAUGACCCACUGGUGACUTT against Gng8, the z-score is inactive: 0.175.
In the case of GGAAACAUCUGGACUCCACTT against Dhrs10 it was inactive: -2.59; in that of GGGCAAUUAUCUUUGUUAUTT against Olfr589, inactive: 0.296.
The value for “CCUAAACCAGUCUUUUCUCTT against 5033428A16Rik” was inactive: 2.05.
Turning to GGUUAUCCAGAGAGAAGGATT against Asxl2, the z-score was inactive: -2.71.
Turning to “GCCCAACCUAGAUGAACCUTT against E030010A14”, the z-score is inactive: 0.109.
Take GGUUCCUCAAGAUCAUCAUTT against P2ry13: the z-score was inactive: 0.762.
The value for CCUUAUUCUGGAAUACCUGTT against AF155546 was inactive: 1.25; that for “GGGAGAUCGAACAGAAUGGTT against C630016B22Rik” was inactive: -2.33; that for GGAAGACAUUACCAAGUCATT against Impa1 was inactive: -1.57.
Consider CCCUUACAUACCAAAGAAATT against Pkp4, for which the z-score is inactive: -0.533.
The value for “GGUCUUUCUUCGAGGAGUCTT against 4930535E21Rik” was inactive: 0.57; that for GCAGCAUUAGUGACUUAAUTT against Mcph1 was inactive: -0.902.
In the case of AACAUCCAAACCCAAGAGATT against MGC118250 it was inactive: 0.553.
In the case of “GGGAAAUAAAGGUUAUGCCTT against 2810432D09Rik” it was inactive: 0.307.
Regarding GGCGACAGUUGUUUUUGUGTT against AU022726, the z-score was inactive: 0.641.
For GCUUUUUGUGGAGCAUUUUTT against Olfr1261, the z-score is inactive: -2.45.
As to GGAUAACGAACAUUUCAUCTT against Ntrk2, the z-score was inactive: 0.601.
In the case of GGUAGGCUGUGUUUGUCGGTT against Poldip3 it was inactive: -1.12; in that of GGCCCAUGUUUAUUUAUGGTT against Hsd3b6, inactive: 0.00967; in that of GCCUUCUUACCUGUUAGACTT against Wbscr22, inactive: -1.28.
In the case of “GGAACACACACUCUGGAAUTT against 4933425O20Rik” it was inactive: 0.362; in that of “CCUAUCUUAUGAUGACAUATT against 1700013E18Rik”, inactive: -0.531; in that of CGACCAUCUUUACUUUAUCTT against Ick, inactive: 0.454.
The value for GCUCACCUUCAGGUAAGCGTT against Gm185 was inactive: 0.547; that for GGCUCAGAUGAUGAGCUUUTT against Hic2 was inactive: 0.941; that for GCAGAGUGACUUUGAAGCGTT against Tieg1 was inactive: 0.184.
For GGACAAGUACUUCAUGAUCTT against Gosr2, the z-score was inactive: -0.103.
For the sequence “CGCAUAUCUAGAAUGGUUATT against 2810021J22Rik”, the z-score is inactive: 0.333.
The value for GGAUAAGACAGUUCCUAGCTT against Tap1 was inactive: 0.292.
“GGAUUCCCGUACAACCAACTT against 4933407P14Rik”: the z-score is inactive: 1.14.
Turning to CGAAUUAUCCAAACAAAUGTT against Shcbp1, the z-score is inactive: -0.236.
GGAACGUAUACCUAUACCCTT against Huwe1: the z-score was inactive: -0.698.
Take GGCUGCCUAUUAUGAGAAGTT against Acy3: the z-score is inactive: 0.307.
With “GCCACCAUUAGGACAAGAUTT against 4933409G03Rik”, the z-score was inactive: 2.43.
For the sequence GGCAAAAAGGGAUGUUACCTT against Map1lc3b, the z-score is inactive: -0.194.
In the case of “GGGAAGAAGAAAAAGAUGATT against C230081A13Rik” it was inactive: -0.774.
As to GGAGUGUUGGGAGCAGGAATT against Tnni1, the z-score was inactive: -1.92.
The value for GCCUUCAAGUAUUUGGAAGTT against Mllt2h was inactive: 1.62.
Turning to GGACGAUGGUUCCUGAAAATT against Snap91, the z-score was inactive: 0.94.
As for GGAAAUCACCAGAGCUGAUTT against Atp6v0a2, the z-score was inactive: 1.56.
In the case of GCCUGUUUUAUUGUGUGACTT against Gna13 it was inactive: 0.429; in that of GGUGGUACGCAGACUAAAUTT against Ulk1, inactive: -0.0686.
In the case of GGAGCUGAACCUGAGCUAUTT against Tlr9 it was inactive: -0.0823; in that of “GGAACUUUUUCAGAUGCAGTT against A930038C07Rik”, inactive: 0.525; in that of GGAGAUGGCGAAAACUCACTT against Rrbp1, inactive: -0.263.
In the case of GGUGGUGGAAUGCUAAAAATT against Gys1 it was inactive: 3.03.
Regarding GGCCUUCAUUGAGAUGAACTT against Ptbp1, the z-score was inactive: 0.228.
The value for GGCAAGGACUCCAAGGACATT against Wdrx1 was inactive: 0.22.
With GGUCUGAGCUGUGAUUACATT against AU016977, the z-score was inactive: -0.757.
In the case of “CCAGUUGUAUAUGGUGUAGTT against 0610025P10Rik”, the z-score is inactive: -2.1.
The value for GGAAAUGGCACCAAUGUCATT against Slc25a24 was inactive: 0.224; that for GGGAUAUUCAAAAUACUAGTT against Hells was inactive: -1.54.
In the case of GGCAAGAUCCACAAUGAUGTT against Lgals2 it was inactive: 0.913.
Turning to GGUGGGUCAAUGAUCCAGGTT against Fabp9, the z-score is inactive: -2.63.
In the case of GCCUUCUAAGUCUGCACCATT against Hist1h2bb it was inactive: 0.35; in that of CGUGCAUUCUUAUCACAGCTT against Hsbp1, inactive: -0.279; in that of GGAUUCCAAAUGCUUACAATT against BC003322, inactive: -0.00548.
In the case of GGACAUAUUUCCAACAUGUTT against Mobkl2b it was inactive: 1.35; in that of GCACUUUCGGUCAAGUGGATT against Pou2f3, inactive: 1.65; in that of GGCGGUGACAGAGCUGAAUTT against Ywhah, inactive: 0.0286.
Consider CCAGGGACUUAGGUUUAUCTT against Thap11, for which the z-score is inactive: -0.331.
In the case of GGAAGCAUUCAAGAACAUCTT against Rab11b it was inactive: -0.365; in that of GGGUCCUUUGAAAUUGUGGTT against Usp37, inactive: 0.449.
The value for CGACUACCAACAGUUCAUATT against P2rxl1 was inactive: 0.959; that for GGAAGAAAGGAAAAUCAGATT against Nsmaf was inactive: -0.534; that for GCUGGAGUGUCAGUCAUAUTT against Reg4 was inactive: -0.407.
The value for “GGAAUGGUAGGAAUUCUUCTT against 2610311I19Rik” was inactive: 0.682; that for “CCUGUGAAGUAUAACAUCGTT against 8430419L09Rik” was inactive: 0.278; that for GGUGAGUUCAUGGUUUCCUTT against Txnl4b was inactive: 0.696.
Take GGGAUGUUUAUUGUGUUCCTT against Tuba1: the z-score was inactive: -0.806.
For GGAGAAGGAGAUGUCCAAUTT against Guca2b, the z-score is inactive: -0.752.
For “GGUUCCCUUUUUCAUCUAATT against 4632433K11Rik”, the z-score is inactive: 4.08.
In the case of GGGAAACCUUCUGUACCAGTT against BC026744 it was inactive: 1.21; in that of GCUGAAGUGCAAGAACAAATT against Dmd, inactive: -0.527.
The value for GGAGUUCGAAAGUAUCUAUTT against Rcvrn was inactive: -1.53.
With GGAAUCAGACACGUUCAUCTT against Prkar2a, the z-score is inactive: -0.396.
For GGGCUACGGACAUUUCAUUTT against BC027072, the z-score was inactive: -1.84.
Regarding GCAUGAAUGUUCUGAGUUCTT against Sh3bgrl, the z-score was inactive: 0.72.
In the case of CGGAGUCCAACCCAUAAAUTT against Blzf1 it was inactive: 0.595.
